# Results reported in PubChem BioAssay (Tox21).
# The chains behind the UniProt entries cited, without tags or fusion partners. Where a name states a change or a piece, a line headed by the entry shows the natural chain unless it says otherwise.
# UniProt Q96RI1: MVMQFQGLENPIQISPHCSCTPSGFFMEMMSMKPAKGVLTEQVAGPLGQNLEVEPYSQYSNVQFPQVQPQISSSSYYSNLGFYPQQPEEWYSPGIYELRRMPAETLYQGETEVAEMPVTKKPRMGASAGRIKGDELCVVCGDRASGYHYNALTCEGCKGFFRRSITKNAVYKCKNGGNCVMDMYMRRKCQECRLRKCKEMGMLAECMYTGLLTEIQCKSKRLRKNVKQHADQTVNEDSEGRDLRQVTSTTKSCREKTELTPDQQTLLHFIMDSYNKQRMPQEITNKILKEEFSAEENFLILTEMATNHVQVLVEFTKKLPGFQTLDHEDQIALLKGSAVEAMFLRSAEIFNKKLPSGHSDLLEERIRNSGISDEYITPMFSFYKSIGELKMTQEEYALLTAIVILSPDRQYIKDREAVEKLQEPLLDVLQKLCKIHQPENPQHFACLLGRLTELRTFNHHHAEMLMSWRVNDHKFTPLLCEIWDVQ
# UniProt P08684, whole entry, looked up: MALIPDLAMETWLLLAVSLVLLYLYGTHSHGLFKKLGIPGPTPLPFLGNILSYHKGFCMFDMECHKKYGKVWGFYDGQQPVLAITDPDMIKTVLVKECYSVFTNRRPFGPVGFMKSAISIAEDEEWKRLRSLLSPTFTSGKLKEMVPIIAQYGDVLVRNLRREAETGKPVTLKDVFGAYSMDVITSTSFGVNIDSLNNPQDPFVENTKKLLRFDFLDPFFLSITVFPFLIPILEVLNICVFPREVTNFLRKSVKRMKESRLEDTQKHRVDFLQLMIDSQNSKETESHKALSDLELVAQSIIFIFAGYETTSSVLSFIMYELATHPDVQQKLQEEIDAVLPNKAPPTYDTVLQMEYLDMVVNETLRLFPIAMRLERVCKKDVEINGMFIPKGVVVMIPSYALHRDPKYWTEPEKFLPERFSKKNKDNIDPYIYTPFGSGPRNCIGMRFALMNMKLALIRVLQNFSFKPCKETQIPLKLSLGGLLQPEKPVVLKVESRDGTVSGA
# UniProt P11473: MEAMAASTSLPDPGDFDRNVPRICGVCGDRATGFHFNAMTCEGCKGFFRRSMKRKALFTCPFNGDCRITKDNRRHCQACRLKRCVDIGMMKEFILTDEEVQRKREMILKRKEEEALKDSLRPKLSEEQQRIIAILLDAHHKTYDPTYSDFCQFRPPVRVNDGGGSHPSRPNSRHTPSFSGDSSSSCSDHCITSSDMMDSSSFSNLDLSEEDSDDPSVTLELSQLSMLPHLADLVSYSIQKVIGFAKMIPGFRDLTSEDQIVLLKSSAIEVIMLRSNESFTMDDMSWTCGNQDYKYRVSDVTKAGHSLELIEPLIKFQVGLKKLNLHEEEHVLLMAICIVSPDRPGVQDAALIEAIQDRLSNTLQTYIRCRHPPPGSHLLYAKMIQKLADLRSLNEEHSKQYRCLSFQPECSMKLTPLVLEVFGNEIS
# UniProt Q03181: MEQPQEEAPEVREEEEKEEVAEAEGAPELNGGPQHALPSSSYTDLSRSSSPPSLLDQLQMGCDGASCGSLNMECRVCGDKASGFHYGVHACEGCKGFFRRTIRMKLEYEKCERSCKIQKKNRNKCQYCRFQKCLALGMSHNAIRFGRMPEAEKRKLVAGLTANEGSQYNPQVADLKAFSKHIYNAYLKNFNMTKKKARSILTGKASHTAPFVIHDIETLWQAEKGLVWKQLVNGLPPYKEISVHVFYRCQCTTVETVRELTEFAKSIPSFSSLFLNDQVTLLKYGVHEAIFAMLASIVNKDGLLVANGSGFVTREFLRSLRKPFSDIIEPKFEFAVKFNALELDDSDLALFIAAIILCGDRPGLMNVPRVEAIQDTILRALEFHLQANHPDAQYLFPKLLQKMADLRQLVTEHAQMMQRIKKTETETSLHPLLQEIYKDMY
# UniProt Q12809: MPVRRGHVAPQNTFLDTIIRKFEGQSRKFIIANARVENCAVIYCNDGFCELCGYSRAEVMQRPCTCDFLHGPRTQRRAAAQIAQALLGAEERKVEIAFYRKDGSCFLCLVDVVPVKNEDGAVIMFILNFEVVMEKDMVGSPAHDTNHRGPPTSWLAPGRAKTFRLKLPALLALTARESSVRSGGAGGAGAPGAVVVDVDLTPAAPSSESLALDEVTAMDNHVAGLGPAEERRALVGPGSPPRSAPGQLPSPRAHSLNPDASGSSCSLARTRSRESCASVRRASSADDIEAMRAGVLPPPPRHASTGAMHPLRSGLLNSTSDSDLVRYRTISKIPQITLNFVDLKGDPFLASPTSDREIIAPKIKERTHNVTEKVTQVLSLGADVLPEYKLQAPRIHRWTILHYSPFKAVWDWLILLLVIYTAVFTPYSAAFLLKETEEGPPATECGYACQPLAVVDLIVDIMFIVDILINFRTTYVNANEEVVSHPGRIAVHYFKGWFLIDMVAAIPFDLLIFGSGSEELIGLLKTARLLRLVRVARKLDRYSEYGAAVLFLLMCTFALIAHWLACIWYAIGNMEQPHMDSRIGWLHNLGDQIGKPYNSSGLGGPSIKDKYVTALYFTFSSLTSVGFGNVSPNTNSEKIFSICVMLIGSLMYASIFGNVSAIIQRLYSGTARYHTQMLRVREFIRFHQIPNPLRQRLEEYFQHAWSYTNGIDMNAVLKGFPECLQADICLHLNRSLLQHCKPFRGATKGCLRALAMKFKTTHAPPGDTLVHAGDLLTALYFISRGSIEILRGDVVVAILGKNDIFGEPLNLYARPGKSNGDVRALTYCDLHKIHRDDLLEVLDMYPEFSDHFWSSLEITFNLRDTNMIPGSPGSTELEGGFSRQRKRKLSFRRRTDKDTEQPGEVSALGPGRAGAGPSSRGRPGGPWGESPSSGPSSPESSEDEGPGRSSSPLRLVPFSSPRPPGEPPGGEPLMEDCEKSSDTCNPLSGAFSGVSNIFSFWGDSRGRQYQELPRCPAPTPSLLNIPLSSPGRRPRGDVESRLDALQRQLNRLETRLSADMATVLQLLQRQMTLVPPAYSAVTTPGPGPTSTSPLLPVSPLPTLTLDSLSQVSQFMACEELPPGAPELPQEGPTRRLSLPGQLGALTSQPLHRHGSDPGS
# UniProt P10635, whole entry, looked up: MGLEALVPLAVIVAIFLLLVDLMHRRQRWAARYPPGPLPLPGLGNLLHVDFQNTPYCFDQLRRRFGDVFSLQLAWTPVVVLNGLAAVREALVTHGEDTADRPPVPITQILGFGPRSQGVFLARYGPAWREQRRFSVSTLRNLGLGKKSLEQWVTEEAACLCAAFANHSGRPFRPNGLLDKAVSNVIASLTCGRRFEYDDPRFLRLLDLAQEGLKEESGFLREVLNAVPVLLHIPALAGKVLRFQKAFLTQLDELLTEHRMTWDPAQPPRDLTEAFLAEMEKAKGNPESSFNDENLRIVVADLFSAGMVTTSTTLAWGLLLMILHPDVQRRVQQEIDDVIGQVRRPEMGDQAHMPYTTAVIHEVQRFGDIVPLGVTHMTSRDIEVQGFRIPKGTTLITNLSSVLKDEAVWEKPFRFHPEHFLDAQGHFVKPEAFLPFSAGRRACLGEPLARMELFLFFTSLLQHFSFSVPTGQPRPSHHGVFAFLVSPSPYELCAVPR
# This list was built around the results that the source calls inconclusive (neither active nor inactive); the mix of calls is not that of the screen. For some of these results: A potency beside an inconclusive call is a rough fit, not a confirmed value. Active and inactive are the calls of the source. Unless noted, the call rests on the fitted dose curve; in most records, active means well fitted curve in the direction sought with a large enough effect in the repeat runs; inconclusive means weak or mixed curves; inactive means no such curve, though single readings can be large; an effect the other way counts as inactive or inconclusive.
# Key:
# [1] = qHTS assay to test for compound auto fluorescence at 535 nm (green) in HEK293 cells (AID 720680); settings: green autofluorescence 485/535 nm; series mostly up to 46 µM; further: potency means the concentration at half of the fitted maximal effect
# [2] = molecular target: Bile acid receptor (Homo sapiens) (UniProt Q96RI1); test: qHTS assay to identify small molecule antagonists of the farnesoid-X-receptor (FXR) signaling pathway (AID 743217; active means well fitted inhibition curve with a large enough effect in the signal ratio in the repeat runs, not every such curve was filed as active; inconclusive means weak or mixed curves, or effect the other way; inactive means no such curve, though single readings can be large or run the other way; the % refers to the signal ratio; further: on the % scale 0 is the no-effect control and ±100 the full control effect); settings: HEK293T FXR-UAS-bla, beta-lactamase ratio, CDCA-stimulated, 16 h; activity change, negative = inhibition: at 62.6 µM (top of the series) unless noted
# In short: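 Antagonist mode against 50 uM (final) chenodeoxycholic acid stimulation in FXR-bla HEK 293T cells, 16 h at 37 °C. Inhibition detected as reduced beta-lactamase activity via LiveBLAzer B/G FRET fluorescence after 2 h at room temperature.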
# [3] = molecular target: Cytochrome P450 3A4 (Homo sapiens) (UniProt P08684); test: Cytochrome P450 Family 3 Subfamily A Member 4 (CYP3A4) small molecule antagonists: luciferase reporter qHTS assay (AID 1671201); settings: P450-Glo CYP3A4 enzyme, luciferin luminescence, 1 h; series mostly up to 115 µM; further: on the % scale 0 is the no-effect control and ±100 the full control effect; nearly all actives have a fitted effect of over 50% in size
# In short: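 Luminescent readout (RLU) proportional to CYP3A4 activity, from luciferin generated off a proluciferin substrate. Enzyme–substrate mix plus compound 10 min at room temp, NADPH regeneration 1 h, detection reagent 20 min.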
# [4] = qHTS assay to identify small molecule antagonists of the peroxisome proliferator-activated receptor gamma (PPARg) signaling pathway - cell viability counter screen (AID 743194); settings: PPARg-bla HEK293H viability, CellTiter-Glo luminescence, 17 h, co-treated with 50 nM rosiglitazone; activity change, negative = cytotoxicity: at 62.6 µM (top of the series) unless noted; further: potency means the concentration at half of the fitted maximal effect; nearly all actives have a fitted effect of over 55% in size
# In short: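 Cytotoxicity counter screen in PPARg-bla HEK293H cells, same wells as reporter assay. Compounds plus 50 nM rosiglitazone (final) for 17 h at 37 C, then viability read by CellTiter-Glo luminescence.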
# [5] = molecular target: Vitamin D3 receptor (Homo sapiens) (UniProt P11473); test: qHTS assay to identify small molecule antagonists of the vitamin D receptor (VDR) signaling pathway (AID 743223; active means well fitted inhibition curve with a large enough effect in the signal ratio in the repeat runs, not every such curve was filed as active; inconclusive means weak or mixed curves, or effect the other way; inactive means no such curve, though single readings can be large or run the other way; the % refers to the signal ratio; further: on the % scale 0 is the no-effect control and ±100 the full control effect); settings: VDR-UAS-bla HEK293T, beta-lactamase FRET ratio, 16 h; activity change, negative = inhibition: at 61 µM (top of the series) unless noted
# In short: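 Beta-lactamase reporter read-out: FRET substrate fluorescence after 2 h at room temperature, following 16 h exposure of VDR-bla cells to test compound plus 3 nM (final) 1alpha,25-dihydroxyvitamin D3 agonist at 37C.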
# [6] = qHTS assay to identify small molecule agonists of the peroxisome proliferator-activated receptor delta (PPARd) signaling pathway - cell viability counter screen (AID 743211); settings: PPARd-bla HEK293H viability, CellTiter-Glo luminescence, 17 h; activity change, negative = cytotoxicity: at 62.6 µM (top of the series) unless noted; further: on the % scale 0 is the no-effect control and ±100 the full control effect; nearly all actives have a fitted effect of over 55% in size
# In short: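 Read-out: CellTiter-Glo luminescence, 30 min RT, measured in the same wells as the beta-lactamase reporter. Cells: GeneBLAzer PPAR delta UAS-bla HEK293H, 3000 cells/well, compound exposure 17 h at 37C.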
# [7] = molecular target: Peroxisome proliferator-activated receptor delta (Homo sapiens) (UniProt Q03181); test: qHTS assay to identify small molecule agonists of the peroxisome proliferator-activated receptor delta (PPARd) signaling pathway (AID 743212; calls by dose curve; further: potency means the concentration at half of the fitted maximal effect); settings: HEK293H PPARd-UAS-bla, beta-lactamase FRET ratio, 17 h; activation: at 62.6 µM (top of the series) unless noted
# In short: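 Quantitative high-throughput agonist screen in a HEK293H beta-lactamase reporter line under UAS control. Compounds in DMSO, at 37 C. Fluorescence read after 2 h with FRET substrate at room temperature.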
# [8] = molecular target: Peroxisome proliferator-activated receptor delta (Homo sapiens) (UniProt Q03181); test: qHTS assay to identify small molecule antagonists of the peroxisome proliferator-activated receptor delta (PPARd) signaling pathway (AID 743215; active means well fitted inhibition curve with a large enough effect in the signal ratio in the repeat runs, not every such curve was filed as active; inconclusive means weak or mixed curves, or effect the other way; inactive means no such curve, though single readings can be large or run the other way; the % refers to the signal ratio;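 further: cells stimulated with agonist L165041 at 300 nM final during compound exposure; on the % scale 0 is the no-effect control and ±100 the full control effect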); settings: HEK293H PPARd-UAS-bla, beta-lactamase FRET ratio, antagonist, 17 h; ratio activity, negative = inhibition: at 62 µM (top of the series) unless noted
# In short: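 Inhibition of L165041-driven (300 nM final) PPARd signaling is scored in HEK293H UAS-bla cells. Exposure lasts 17 h at 37 C; beta-lactamase activity is then read by FRET substrate fluorescence after 2 h at room temperature.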
# [9] = molecular target: Voltage-gated inwardly rectifying potassium channel KCNH2 (Homo sapiens) (UniProt Q12809); test: Human Ether-a-go-go-Related Gene (hERG) channel small molecule antagonists: fluorescence cell-based qHTS assay (AID 1671200); settings: hERG-U2OS cells, FluxOR thallium flux fluorescence; series mostly up to 76.8 µM;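 further: hERG-expressing U2OS cells given a thallium stimulus after FluxOR II dye loading; on the % scale 0 is the no-effect control and ±100 the full control effect; nearly all actives have a fitted effect of over 50% in size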
# In short: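 Read-out: thallium influx as a surrogate for potassium, tracked as fluorescence (480 nm ex/540 nm em) every second for 2 min after Stimulus Buffer addition in dye-loaded hERG-U2OS cells.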
# [10] = qHTS assay for small molecule activators of the heat shock response signaling pathway - cell viability counter screen (AID 743209); settings: HSE-bla HeLa viability, CellTiter-Glo luminescence, 5 h; activity change, negative = cytotoxicity: at 62.6 µM (top of the series) unless noted; further: potency means the concentration at half of the fitted maximal effect; nearly all actives have a fitted effect of over 50% in size
# In short: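 First, HSE-bla HeLa cells were seeded at 1500 cells/well and kept overnight at 37 C. Next, compounds were pinned in and incubated 5 h. After the FRET substrate step, CellTiter-Glo was added and luminescence read 30 min later.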
# [11] = molecular target: Cytochrome P450 2D6 (Homo sapiens) (UniProt P10635); test: Cytochrome P450 Family 2 Subfamily D Member 6 (CYP2D6) small molecule antagonists: luciferase reporter qHTS assay (AID 1671196); settings: P450-Glo CYP2D6 enzyme assay, luciferin luminescence, 1 h; series mostly up to 115 µM; further: potency means the concentration at half of the fitted maximal effect; nearly all actives have a fitted effect of over 50% in size
# In short: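 P450-Glo format: CYP2D6 converts a proluciferin substrate to luciferin in an NADPH-driven reaction lasting 1 h at room temperature. Light output, proportional to CYP2D6 activity, reflects interference by test chemicals.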
# [12] = molecular target: Vitamin D3 receptor (Homo sapiens) (UniProt P11473); test: qHTS assay to identify small molecule agonists of the vitamin D receptor (VDR) signaling pathway (AID 743222; calls by dose curve; further: on the % scale 0 is the no-effect control and ±100 the full control effect); settings: HEK293T VDR-UAS-bla, beta-lactamase FRET ratio, 16 h; activation: at 63.5 µM (top of the series) unless noted
# In short: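 Quantitative HTS agonist-mode screen: compounds in DMSO were pin-transferred onto VDR-bla cells and incubated 16 h at 37C, 5% CO2. Reporter activity was detected with LiveBLAzer B/G FRET substrate after 2 h at room temperature.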
# [13] = qHTS assay to test for compound auto fluorescence at 535 nm (green) in HepG2 cells (AID 720675); settings: green autofluorescence 485/535 nm, 1 h; fluorescence, % of fluorescein control: at 91.3 µM (top of the series) unless noted; further: potency means the concentration at half of the fitted maximal effect
# [14] = qHTS assay to test for compound auto fluorescence at 535 nm (green) in HepG2 cell free culture (AID 720686); settings: Cell-free medium, green autofluorescence 485/535 nm; further: potency means the concentration at half of the fitted maximal effect
# [15] = qHTS assay to test for compound auto fluorescence at 590 nm (red) in HepG2 cells (AID 720674); settings: HepG2 autofluorescence, red 540/590 nm, 1 h; series mostly up to 91.3 µM; further: potency means the concentration at half of the fitted maximal effect
# In short: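 Fluorescence at 590 nm emission following 540 nm excitation was recorded from HepG2 wells one hour after compound transfer, with DMSO-only wells as vehicle and Rose Bengal sodium equivalency as the scale.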
# [16] = qHTS assay to test for compound auto fluorescence at 590 nm (red) in HEK293 cells (AID 720679); settings: red autofluorescence 540/590 nm; series mostly up to 46 µM; further: potency means the concentration at half of the fitted maximal effect
# In short: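 We plated HEK293 cells in 10% dialyzed FBS medium, let them adhere for 4-5 hr, then added 23 nL compound. Overnight at 37C and 5% CO2 preceded fluorescence measurement at 540/590nm.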
# [17] = qHTS assay to test for compound auto fluorescence at 590 nm (red) in HEK293 cell free culture (AID 720683); settings: cell-free medium autofluorescence, Ex540/Em590 red; further: potency means the concentration at half of the fitted maximal effect
# In short: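 Cell-free wells of DMEM with 10% FBS received compound, and intrinsic fluorescence was read at excitation/emission 540/590 nm. Values expressed as equivalence to Rose Bengal sodium.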
# [18] = qHTS assay to test for compound auto fluorescence at 590 nm (red) in HepG2 cell free culture (AID 720684); settings: cell-free medium autofluorescence, red 540/590 nm; series mostly up to 91.3 µM; further: potency means the concentration at half of the fitted maximal effect
# In short: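 Compounds are added to culture medium (MEM, 10% FBS) lacking cells, then fluorescence is read at excitation 540 nm, emission 590 nm, with Rose Bengal sodium as the equivalency standard.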
# Tags describe the fitted curve by direction and shape or compound fluorescence and quenching.
compound,measurement,setting,value
CC(=C\c1ccccc1)/C=C1/SC(=S)N(CC(=O)O)C1=O,Potency,[1],inactive
C=CCNCC=C,"activity change, negative = inhibition",[2],inconclusive: 7.46%
same,Potency,[3],inactive
CCCCCCCCO,Potency,[4],"inconclusive: 22 µM [rising, single point]"
same,Potency,[5],inactive
NS(=O)(=O)c1cc2c(cc1Cl)NC(C(Cl)Cl)NS2(=O)=O (configuration not stated),Potency,[6],inactive
same,Potency,[7],inactive
same,"ratio activity, negative = inhibition",[8],inconclusive: 5.15%
same,Potency,[2],inactive
same,"activity change, negative = inhibition",[5],inconclusive: 21.1%
same,Potency,[9],inactive
Cc1ccc(N)nc1,Potency,[10],"inconclusive: 11.9 µM [cytotoxic, full curve, poor fit]"
same,Potency,[7],"inconclusive: 53.2 µM [rising, single point]"
same,Potency,[11],"inconclusive: 61.3 µM [inhibitor, partial curve]"
COC(C)(OC)OC,Potency,[12],inactive
Cc1cc2nc3c(=O)[nH]c(=O)nc-3n(C[C@H](O)[C@H](O)[C@H](O)COP(=O)(O)OP(=O)(O)OC[C@H]3O[C@@H](n4cnc5c(N)ncnc54)[C@H](O)[C@@H]3O)c2cc1C,Potency,[13],active: 14.1 µM
same,Potency,[14],active: 12.6 µM [fluorescent]
CC1(S(=O)(=O)O)CC(=O)c2ccccc2C1=O (configuration not stated),Potency,[1],"inconclusive: 15.8 µM [fluorescent, partial curve, poor fit]"
O=C(O)CN(CC(=O)O)CC1=CC2C(=CC1=O)Oc1cc(O)c(CN(CC(=O)O)CC(=O)O)cc1C21OC(=O)c2ccccc21 (configuration not stated),Potency,[15],"inconclusive: 15.8 µM [rising, single point]"
same,Potency,[16],"inconclusive: 14.1 µM [fluorescent, single point]"
same,Potency,[17],"inconclusive: 14.1 µM [fluorescent, partial curve, poor fit]"
same,Potency,[18],"inconclusive: 14.1 µM [fluorescent, partial curve, poor fit]"

# Random excerpt: two records from the list, in no set order.
compound,measurement,setting,value
CCCCCCCCO,Potency,[4],"inconclusive: 22 µM [rising, single point]"
Cc1cc2nc3c(=O)[nH]c(=O)nc-3n(C[C@H](O)[C@H](O)[C@H](O)COP(=O)(O)OP(=O)(O)OC[C@H]3O[C@@H](n4cnc5c(N)ncnc54)[C@H](O)[C@@H]3O)c2cc1C,Potency,[14],active: 12.6 µM [fluorescent]
